Experimental findings from patent US11130780B2 (Washington University, priority 2015, dated 2021) are described below.

HELM strings list residues between dots; [ac] is acetyl, [am] amide, other brackets name non-standard units.

A short description of the first series: general procedure: hybrid (solid and solution phase) peptide synthesis; Fmoc-amino acid-preloaded 2-Cl-trityl resin; HBTU/iPr2NEt (tripeptide on resin); HATU/DIPEA (solution coupling to Arg ketothi). The following applies: coupling step.
In the case of PEPTIDE1{W.R.L.R.[kbt]}$$$$V2.0, the step yield turned out to be 39%. Same read-out and setting: as for PEPTIDE1{[ac].F.L.F.R.[kbt]}$$$$V2.0, the figure is 47%; as for “PEPTIDE1{[ac].K.Q.L.R.[kbt-6-CO-Val-NH2]}$$$$V2.0”, 11%. In the case of “PEPTIDE1{[ac].K.R.L.R.[kbt-6-CO-Val-NH2]}$$$$V2.0”, the step yield is 28%. As for PEPTIDE1{[ac].K.R.L.R.[kbt]}$$$$V2.0, the step yield stood at 38%. “PEPTIDE1{[ac].S.K.L.R.[kbt-6-CO-Phe-NH2]}$$$$V2.0” yielded a step yield of 25%.

In turn, “PEPTIDE1{[ac].S.K.L.R.[kbt-6-CO-Trp-NH2]}$$$$V2.0” gave a step yield of 24%.

As to PEPTIDE1{[ac].S.K.L.R.[kbt]}$$$$V2.0, the step yield was found to be 23%.

Substance PEPTIDE1{[ac].W.L.F.R.[kbt]}$$$$V2.0 had a step yield of 19%.

Staying with this series, now noted: late stage modification step.
With “PEPTIDE1{[ac].S.K.L.R.[kbt-6-CONH-4-pyridyl]}$$$$V2.0”, the step yield was 18%.

Turning to “PEPTIDE1{[ac].S.K.L.R.[kbt-6-CONHBn]}$$$$V2.0”, the step yield stood at 33%.

Regarding “PEPTIDE1{[ac].S.K.L.R.[kbt-6-COOH]}$$$$V2.0”, the step yield turned out to be 29%.
